In PubChem BioAssay (EPA / NIEHS):
Several values for one entry are separate records, joined by “and”; a condition that tells them apart may be missing. Equal values may be shown once. The shares of active, inactive and inconclusive entries below differ from those in the screen. Potencies beside an inconclusive call are fits to weak or partial responses and may not hold up. Activity calls are given as the source filed them. How the source made its calls: active means hit-call score of the fitted dose curve at least 0.9, where 1 is the maximum; inconclusive means response in the unintended direction; inactive means score below 0.9.

Experiment: ATG_GAL4_TRANS: Attagene TRANS-FACTORIAL HepG2 Assay for GAL4 (Internal Marker) (AID 2282976)
Conditions: HepG2 Attagene TRANS GAL4 internal marker reporter
Description: ATG_TRANS is a cell-based, multiplexed-readout assay that uses HepG2, a human liver cell line, with measurements taken at 24 hours after chemical dosing in a 24-well plate.ATG_GAL4_TRANS is one of 30 assay component(s) measured or calculated from the ATG_TRANS assay. It is designed to make measurements of mRNA induction, a form of inducible reporter, as detected with fluorescence intensity signals by Reverse transcription polymerase chain reaction (RT-PCR) and Capillary electrophoresis technology.Data from the assay component ATG_GAL4_TRANS was analyzed into 1 assay endpoint. This assay endpoint, ATG_GAL4_TRANS, was analyzed in the positive analysis fitting direction relative to DMSO as the negative control and baseline of activity. Using a type of inducible reporter, measures of mRNA for gain-of-signal activity can be used to understand the background control at the transcription factor-level as they relate to the gene . Furthermore, this assay endpoint can be referred to as a secondary readout, because this assay has produced multiple assay endpoints where this one serves a background control function. To generalize the intended target to other relatable targets, this assay endpoint is annotated to the background measurement intended target family, where the subfamily is baseline control.
Human liver HepG2 cells are transiently transfected with multiple reporter transcription units (MRTUs) in 6-well plates using FuGene 6 reagent (Roche; 3 ml FuGene/1 mg DNA). The MRTU constructs are regulated by a cis-regulating element (promoter). […] A major difference between the CIS and TRANS system is that in CIS activities of endogenous TFs are measured, whereas the TRANS assay evaluates changes in activities of exogenous, chimeric NR-Gal4 proteins. […] At the end of 24 hour incubation, total RNA was isolated using TriZol reagent (Invitrogen). The isolated RNA is then reverse-transcribed using oligo(dT) primer and Mo-MLV reverse transcriptase (Invitrogen) with DNAse I (Ambion) treatment for 30 min. The one-tenth of the produced cDNA was amplified by PCR using Taq DNA polymerase (Invitrogen) and two reporter sequence-specific primers. The PCR products were fluorescently labeled by primer extension with 6-arboxyfluorescein (6-FAM) 5'-labeled reporter sequence-specific primer (2 min at 95 C, 20 s at 68 C and 10 min at 72 C) and these products were digested with 5U of HpaI (New England Biolabs) for 2h at 37 C. The fragments were purified using Qiaquick PCR columns (Qiagen), analyzed on an ABI 3130xL genetic analyzer (Applied Biosystems) with peak positions identified by using a set of X-rhodamine (ROX)-labeled MapMarker1000 molecular weight standards (BioVentures). The raw capillary electrophoresis data was processed using Attagraph software (Attagene).

SMILES	outcome	AC50
CCC(=O)c1ccccc1	inactive	–
CCCCCCCCSC(=O)Oc1cc(Cl)nnc1-c1ccccc1	inactive	–
O=C(CCl)Nc1ccccc1	–	inconclusive: 5.3 µM
Cn1sc(Cl)cc1=O	inactive	–
COC(N)=O	inactive	–
C/C(=N\NC(=O)Nc1cc(F)cc(F)c1)c1ncccc1C(=O)O	inactive	–
CCOP(=S)(OCC)SCSP(=S)(OCC)OCC	–	inconclusive: 100 µM
O=C(N[C@H]1CN2CCC1CC2)c1cc2ccoc2cn1	–	inconclusive: 100 µM
O=S(=O)(C(Cl)(Cl)Cl)C(Cl)(Cl)Cl	inactive	–
C[N+](C)(C)CC(=O)O	inactive	–
CC(O)(CS(=O)(=O)c1ccc(F)cc1)C(=O)Nc1ccc(C#N)c(C(F)(F)F)c1 (stereo unspecified)	inactive	inconclusive: 100 µM and inconclusive: 58 µM
CC(C)(COCC1CO1)COCC1CO1 (stereo unspecified)	–	inconclusive: 100 µM
C[C@]12CC[C@H](O)C[C@H]1CC[C@@H]1[C@@H]2C[C@@H](O)[C@]2(C)[C@@H](C3=CC(=O)OC3)CC[C@]12O	–	inconclusive: 1.58 µM
Brc1ccc(Oc2c(Br)cc(Br)cc2Br)c(Br)c1	inactive	–
ClC1=C(Cl)C2(Cl)C3C(Cl)C=CC3C1(Cl)C2(Cl)Cl (stereo unspecified)	–	inconclusive: 167 µM

SMILES	outcome	AC50
CC(C)(C)C(O)C(Oc1ccc(-c2ccccc2)cc1)n1cncn1 (stereo unspecified)	inactive	–
CC#Cc1cc(C)nc(Nc2ccccc2)n1	–	inconclusive: 5.39 µM
C=C(C)C(=O)OCC1CO1 (stereo unspecified)	inactive	–
OCCOCCO	–	inconclusive: 100 µM
CC(C)(OO)c1ccccc1	inactive	–
OCC(F)(F)OC(F)(F)C(F)(F)OC(F)(F)C(F)(F)OC(F)(F)F	–	inconclusive: 90.5 µM
O=C(O)C(F)(OC(F)(F)C(F)(F)C(F)(F)F)C(F)(F)F (stereo unspecified)	–	inconclusive: 150 µM and inconclusive: 25 µM
C[N+](C)(C)CC1CO1 (stereo unspecified)	–	inconclusive: 100 µM
O=C1CCCO1	inactive	–
O=[N+]([O-])c1ccc(Nc2ccccc2)cc1	–	inconclusive: 100 µM
Nc1cccnc1	–	inconclusive: 179 µM
O=C(O)Cc1ccccc1	–	inconclusive: 0.0823 µM
CCCCC(CC)COC(=O)Cl (stereo unspecified)	inactive	–
CCCN(CCOc1c(Cl)cc(Cl)cc1Cl)C(=O)n1ccnc1	inactive	inconclusive: 33.4 µM and inconclusive: 60.1 µM

Arranged by molar mass (rising): part of the list above
SMILES	outcome	AC50
C=C(C)C(=O)OCC1CO1 (stereo unspecified)	inactive	–
CCCCC(CC)COC(=O)Cl (stereo unspecified)	inactive	–
CC#Cc1cc(C)nc(Nc2ccccc2)n1	–	inconclusive: 5.39 µM
